According to article doi:10.1101/2024.12.02.626492:
Results are given in words; binding and its absence hold for the method and conditions named. A result given as binding can be weak or reduced; the word gives no strength.

Chains of the proteins cited; added tags and fusions are not shown. Lines headed by an entry give the natural chain unless they say otherwise; changes in a name come on top.
UniProt P41352: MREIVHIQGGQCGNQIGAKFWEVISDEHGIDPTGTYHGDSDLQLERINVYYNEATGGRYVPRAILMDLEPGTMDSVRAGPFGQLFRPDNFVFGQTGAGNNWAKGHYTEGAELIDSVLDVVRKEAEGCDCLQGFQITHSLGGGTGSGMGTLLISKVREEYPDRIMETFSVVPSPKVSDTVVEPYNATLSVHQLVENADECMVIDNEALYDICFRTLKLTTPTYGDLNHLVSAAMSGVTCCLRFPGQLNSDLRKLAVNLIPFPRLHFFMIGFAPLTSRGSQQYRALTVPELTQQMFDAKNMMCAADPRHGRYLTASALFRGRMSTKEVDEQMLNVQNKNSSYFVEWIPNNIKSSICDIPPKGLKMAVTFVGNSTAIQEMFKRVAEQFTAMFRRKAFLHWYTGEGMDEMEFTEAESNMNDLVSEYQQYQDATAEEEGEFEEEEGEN
UniProt P41351: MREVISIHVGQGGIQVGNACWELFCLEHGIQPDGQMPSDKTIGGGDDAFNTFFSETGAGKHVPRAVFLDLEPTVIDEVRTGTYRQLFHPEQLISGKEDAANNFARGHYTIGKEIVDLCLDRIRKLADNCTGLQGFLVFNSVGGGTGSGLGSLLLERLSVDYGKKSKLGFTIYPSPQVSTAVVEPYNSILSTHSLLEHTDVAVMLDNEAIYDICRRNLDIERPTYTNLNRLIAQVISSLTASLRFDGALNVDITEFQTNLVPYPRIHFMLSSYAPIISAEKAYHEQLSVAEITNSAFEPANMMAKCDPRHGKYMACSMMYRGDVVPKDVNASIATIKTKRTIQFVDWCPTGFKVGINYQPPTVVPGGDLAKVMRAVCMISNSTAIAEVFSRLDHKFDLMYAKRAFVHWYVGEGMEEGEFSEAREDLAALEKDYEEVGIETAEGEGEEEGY
UniProt I7M5Z8: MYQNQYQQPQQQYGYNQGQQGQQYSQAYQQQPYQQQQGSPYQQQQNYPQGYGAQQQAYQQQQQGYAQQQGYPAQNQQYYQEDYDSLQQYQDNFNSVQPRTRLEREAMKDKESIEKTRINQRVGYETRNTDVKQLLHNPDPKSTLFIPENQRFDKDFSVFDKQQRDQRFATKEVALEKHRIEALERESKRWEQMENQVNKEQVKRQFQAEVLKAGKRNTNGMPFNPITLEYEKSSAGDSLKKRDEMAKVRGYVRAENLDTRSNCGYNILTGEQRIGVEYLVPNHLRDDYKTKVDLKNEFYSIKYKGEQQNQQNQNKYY
UniProt Q22DM0: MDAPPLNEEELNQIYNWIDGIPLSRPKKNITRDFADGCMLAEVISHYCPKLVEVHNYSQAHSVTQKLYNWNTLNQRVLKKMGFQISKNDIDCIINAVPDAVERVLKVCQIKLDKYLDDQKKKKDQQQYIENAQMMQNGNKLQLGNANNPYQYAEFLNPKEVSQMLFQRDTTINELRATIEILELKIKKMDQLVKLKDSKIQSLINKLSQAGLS
UniProt I7M0H4: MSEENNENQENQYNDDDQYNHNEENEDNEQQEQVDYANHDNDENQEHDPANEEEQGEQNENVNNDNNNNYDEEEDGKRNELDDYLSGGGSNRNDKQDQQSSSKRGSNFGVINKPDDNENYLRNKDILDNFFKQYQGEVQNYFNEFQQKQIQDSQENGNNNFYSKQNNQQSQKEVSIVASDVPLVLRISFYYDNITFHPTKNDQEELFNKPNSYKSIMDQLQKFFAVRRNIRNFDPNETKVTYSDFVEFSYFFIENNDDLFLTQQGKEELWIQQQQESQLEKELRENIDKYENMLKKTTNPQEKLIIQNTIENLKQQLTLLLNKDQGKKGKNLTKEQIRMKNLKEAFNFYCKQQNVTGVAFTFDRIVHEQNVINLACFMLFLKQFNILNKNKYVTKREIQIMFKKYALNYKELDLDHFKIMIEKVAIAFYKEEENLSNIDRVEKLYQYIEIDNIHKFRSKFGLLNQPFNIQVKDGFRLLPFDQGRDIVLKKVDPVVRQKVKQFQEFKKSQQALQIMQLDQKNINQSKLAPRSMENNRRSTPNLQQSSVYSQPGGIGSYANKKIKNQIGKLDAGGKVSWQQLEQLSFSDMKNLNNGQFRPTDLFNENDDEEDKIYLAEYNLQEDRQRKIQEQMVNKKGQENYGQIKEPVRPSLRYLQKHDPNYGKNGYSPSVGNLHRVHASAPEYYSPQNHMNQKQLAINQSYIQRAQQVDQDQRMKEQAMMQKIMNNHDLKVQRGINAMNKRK

What was measured:
[1] = target: β-tubulin (Tetrahymena thermophila, tip central pair microtubules) (Tetrahymena thermophila (endogenous in cilia)) (UniProt P41352); test: cryo-EM structure; single-particle cryo-EM of the native tip central pair from demembranated, ATP-split axonemes of Tetrahymena CU428 cilia; 8-nm repeat, overall 3.9 Å, local maps 3.6 to 4.4 Å; proteins assigned with DomainFit and AlphaFold2 models
[2] = target: α-tubulin (Tetrahymena thermophila, tip central pair microtubules) (Tetrahymena thermophila (endogenous in cilia)) (UniProt P41351); test: as above

Row | Substance | binding [1] | binding [2]
1 | CFAP213 (Tetrahymena thermophila) (from UniProt I7M5Z8) | binds | –
2 | SPEF1A (Tetrahymena thermophila) (from UniProt Q22DM0) | binds | binds
3 | TPPP-like protein 1 (TLP1) (from UniProt I7M0H4) | binds | binds
